Laboratory results from US9102588B2, “Fungicide N-cycloalkyl-N-bicyclic-carboxamide derivatives” (priority 2007, dated 2015).
Some entries share one result that the patent states for a list of compounds.

How the values were obtained:
Pyrenophora teres = experiment: In vivo test on Pyrenophora teres (barley net blotch); conditions: 500 ppm; barley plants sprayed 24 hours before contamination; grading 12 days after contamination vs control plants
Alternaria brassicae = experiment: In vivo test on Alternaria brassicae (leaf spot of crucifers); conditions: 500 ppm; radish plants sprayed 24 hours before contamination; grading 6 to 7 days after contamination vs control plants
Sphaerotheca fuliginea = experiment: In vivo test on Sphaerotheca fuliginea (powdery mildew); conditions: 500 ppm; gherkin plants sprayed 24 hours before contamination; grading 12 days after contamination vs control plants
Puccinia recondita = experiment: In vivo test on Puccinia recondita (brown rust); conditions: 500 ppm; wheat plants sprayed 24 hours before contamination; grading 10 days after contamination vs control plants
Botrytis cinerea = experiment: In vivo test on Botrytis cinerea (grey mould); conditions: 500 ppm; gherkin plants sprayed 24 hours before contamination; grading 5/7 days after contamination vs control plants
[1] = test system: Mycosphaerella graminicola; experiment: In vivo test on Mycosphaerella graminicola (wheat leaf spot); conditions: 500 ppm; wheat plants sprayed 24 hours before contamination; grading 21 to 28 days after contamination vs control plants
Phakopsora pachyrhizi = experiment: In vivo test on Phakopsora pachyrhizi (soybean rust); conditions: 250 ppm; soybean plants sprayed 24 hours before contamination; grading 11 days after contamination vs control plants

Cn1cc(C(=O)N(C2CC2)C2CC(C)(C)c3ccccc32)c(C(F)F)n1 (centres unmarked) [Example 85]
at least 70%: good (at least 70%) or total protection (Pyrenophora teres) | good protection (at least 70%) (Alternaria brassicae) | good (at least 70%) or total protection (% of efficacy) (Sphaerotheca fuliginea) | good (at least 70%) or total protection (Puccinia recondita) | good (at least 70%) protection (Botrytis cinerea)

Cc1nn(C)c(F)c1C(=O)N(C1CC1)C1CCc2cc(Cl)ccc21 (centres unmarked) [Example 2]
at least 70%: good (at least 70%) or total protection (Pyrenophora teres) | good protection (at least 70%) (Alternaria brassicae) | good (at least 70%) or total protection (% of efficacy) [1] | good (at least 70%) or total protection (% of efficacy) (Sphaerotheca fuliginea) | good (at least 70%) or total protection (Puccinia recondita) | good (at least 70%) protection (Botrytis cinerea)

Cn1cc(C(=O)N(C2CC2)C2CCc3cccc(Cl)c32)c(C(F)(F)F)n1 (centres unmarked) [Example 138]
at least 70%: good (at least 70%) or total protection (Pyrenophora teres) | good protection (at least 70%) (Alternaria brassicae) | good (at least 70%) or total protection (% of efficacy) [1] | good (at least 70%) or total protection (% of efficacy) (Sphaerotheca fuliginea) | good (at least 70%) protection (Botrytis cinerea)

Cc1nn(C)c(F)c1C(=O)N(C1CC1)C1c2ccccc2CC1C (centres unmarked) [Example 12]
at least 70%: good (at least 70%) or total protection (Pyrenophora teres) | good protection (at least 70%) (Alternaria brassicae) | good (at least 70%) or total protection (Phakopsora pachyrhizi) | good (at least 70%) or total protection (% of efficacy) (Sphaerotheca fuliginea) | good (at least 70%) or total protection (Puccinia recondita) | good (at least 70%) protection (Botrytis cinerea)

Cc1nn(C)c(F)c1C(=O)N(C1CC1)C1CCCCc2ccc(F)cc21 (centres unmarked) [Example 1]
at least 70%: good (at least 70%) or total protection (Pyrenophora teres) | good (at least 70%) or total protection (% of efficacy) [1] | good (at least 70%) or total protection (Phakopsora pachyrhizi) | good (at least 70%) or total protection (% of efficacy) (Sphaerotheca fuliginea) | good (at least 70%) or total protection (Puccinia recondita) | good (at least 70%) protection (Botrytis cinerea)

Cc1nn(C)c(F)c1C(=O)N(C1CC1)C1CCc2cccc(Cl)c21 (centres unmarked) [Example 5, N-(7-chloro-2,3-dihydro-1H-inden-1-yl)-N-cyclopropyl-5-fluoro-1,3-dimethyl-1H-pyrazole-4-carboxamide]
at least 70%: good (at least 70%) or total protection (Pyrenophora teres) | good protection (at least 70%) (Alternaria brassicae) | good (at least 70%) or total protection (% of efficacy) [1] | good (at least 70%) or total protection (% of efficacy) (Sphaerotheca fuliginea) | good (at least 70%) protection (Botrytis cinerea)

Cc1cccc2c1CCC2N(C(=O)c1c(C(F)(F)F)nn(C)c1F)C1CC1 (centres unmarked) [Example 40]
at least 70%: good (at least 70%) or total protection (Pyrenophora teres) | good protection (at least 70%) (Alternaria brassicae) | good (at least 70%) or total protection (% of efficacy) [1] | good (at least 70%) or total protection (% of efficacy) (Sphaerotheca fuliginea) | good (at least 70%) protection (Botrytis cinerea)

Cn1nc(C(F)(F)F)c(C(=O)N(C2CC2)C2CCCc3ccccc32)c1F (centres unmarked) [Example 42]
at least 70%: good (at least 70%) or total protection (Pyrenophora teres) | good protection (at least 70%) (Alternaria brassicae) | good (at least 70%) or total protection (% of efficacy) [1] | good (at least 70%) or total protection (% of efficacy) (Sphaerotheca fuliginea) | good (at least 70%) or total protection (Puccinia recondita) | good (at least 70%) protection (Botrytis cinerea)

Cc1nn(C)c(F)c1C(=O)N(C1CC1)C1CCCc2ccc(-c3ccccc3)cc21 (centres unmarked) [Example 31]
at least 70%: good protection (at least 70%) (Alternaria brassicae) | good (at least 70%) or total protection (% of efficacy) [1] | good (at least 70%) or total protection (Phakopsora pachyrhizi) | good (at least 70%) or total protection (Puccinia recondita)

CC1Cc2ccccc2C1N(C(=O)c1c(C(F)(F)F)nn(C)c1F)C1CC1 (centres unmarked) [Example 51]
at least 70%: good (at least 70%) or total protection (Pyrenophora teres) | good protection (at least 70%) (Alternaria brassicae) | good (at least 70%) or total protection (% of efficacy) [1] | good (at least 70%) or total protection (% of efficacy) (Sphaerotheca fuliginea) | good (at least 70%) or total protection (Puccinia recondita) | good (at least 70%) protection (Botrytis cinerea)

Cc1cc(C)c2c(c1)C(N(C(=O)c1cn(C)nc1C(F)F)C1CC1)CCC2 (centres unmarked) [Example 90]
at least 70%: good (at least 70%) or total protection (Pyrenophora teres) | good protection (at least 70%) (Alternaria brassicae) | good (at least 70%) or total protection (% of efficacy) [1] | good (at least 70%) or total protection (Phakopsora pachyrhizi) | good (at least 70%) or total protection (Puccinia recondita)

Cc1cc(C)c2c(c1)C(N(C(=O)c1c(C)nn(C)c1F)C1CC1)CCC2 (centres unmarked) [Example 19]
at least 70%: good (at least 70%) or total protection (Pyrenophora teres) | good protection (at least 70%) (Alternaria brassicae) | good (at least 70%) or total protection (% of efficacy) [1] | good (at least 70%) or total protection (Phakopsora pachyrhizi) | good (at least 70%) or total protection (Puccinia recondita)

Cc1nn(C)c(F)c1C(=S)N(C1CC1)C1CCCc2ccc(Br)cc21 (centres unmarked) [Example 17]
at least 70%: good (at least 70%) or total protection (Pyrenophora teres) | good protection (at least 70%) (Alternaria brassicae) | good (at least 70%) or total protection (Phakopsora pachyrhizi) | good (at least 70%) or total protection (% of efficacy) (Sphaerotheca fuliginea) | good (at least 70%) or total protection (Puccinia recondita)

Cc1nn(C)c(F)c1C(=O)N(C1CC1)C1CC(C)(C)c2ccccc21 (centres unmarked) [Example 13]
at least 70%: good (at least 70%) or total protection (Pyrenophora teres) | good protection (at least 70%) (Alternaria brassicae) | good (at least 70%) or total protection (Phakopsora pachyrhizi) | good (at least 70%) or total protection (% of efficacy) (Sphaerotheca fuliginea) | good (at least 70%) or total protection (Puccinia recondita)

Cn1nc(C(F)(F)F)c(C(=O)N(C2CC2)C2CCc3ccccc32)c1F (centres unmarked) [Example 39]
at least 70%: good (at least 70%) or total protection (Pyrenophora teres) | good protection (at least 70%) (Alternaria brassicae) | good (at least 70%) or total protection (% of efficacy) [1] | good (at least 70%) or total protection (% of efficacy) (Sphaerotheca fuliginea) | good (at least 70%) protection (Botrytis cinerea)

Cn1cc(C(=O)N(C2CC2)C2CCC(C)(C)c3ccccc32)c(C(F)F)n1 (centres unmarked) [Example 92]
at least 70%: good (at least 70%) or total protection (Pyrenophora teres) | good protection (at least 70%) (Alternaria brassicae) | good (at least 70%) or total protection (Phakopsora pachyrhizi) | good (at least 70%) or total protection (% of efficacy) (Sphaerotheca fuliginea) | good (at least 70%) or total protection (Puccinia recondita)

Cn1nc(C(F)(F)F)c(C(=O)N(C2CC2)C2CCc3cccc(Cl)c32)c1F (centres unmarked) [Example 44]
at least 70%: good (at least 70%) or total protection (Pyrenophora teres) | good protection (at least 70%) (Alternaria brassicae) | good (at least 70%) or total protection (% of efficacy) [1] | good (at least 70%) or total protection (% of efficacy) (Sphaerotheca fuliginea) | good (at least 70%) protection (Botrytis cinerea)
